PubChem BioAssay AID1053208 – Peter MacCallum Cancer Centre | 2014
The whole screen tested about 17,000 reagents; below is a part drawn at random. In the full data, 788 (4.7%) got an active call. 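Calls rest on z-score classes alone; an extra cut-off of viability at most 70% of control was not applied to them.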 The numbers tell different reagents against one gene apart. Further read-outs or replicates are left out here.

Screen: 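Synthetic lethal interactions between gene loss and doxorubicin in osteosarcoma cells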 (primary screen)
System: mouse osteosarcoma cells, early-passage culture from an engineered mouse model of fibroblastic bone tumour
Reagent: siRNA pool against mouse genes, 40 nM
Duration: about 120 h (48 h before drug, then 72 h with drug)
Treatment: doxorubicin 100 nM for 72 h, roughly 30-40% inhibitory dose
Measured: 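Viability read as ATP luminescence after 72 h of 100 nM doxorubicin or none, duplicate wells averaged, scaled to non-targeting siRNA, then expressed as robust z-scores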
Reading the numbers: viability z-score with doxorubicin: higher = more viable cells under doxorubicin; viability z-score without drug: higher = more viable cells with knock-down alone
Hit rule: 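a pool counts as active when its viability z-score with doxorubicin is -2 or below and its z-score without drug lies between -2 and 2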

What is on record for Agbl3 (ATP/GTP binding protein-like 3)?
combined z-score class: no change with or without drug; viability z-score with doxorubicin: 0.67; viability z-score without drug: 0.34; Outcome: inactive

With Igsf8 (immunoglobulin superfamily, member 8), how do the results read?
combined z-score class: no change with or without drug; viability z-score with doxorubicin: -0.56; viability z-score without drug: 0.84; Outcome: inactive

For Mmp19 (matrix metallopeptidase 19), what was measured?
combined z-score class: no change with or without drug; viability z-score with doxorubicin: 0.22; viability z-score without drug: 0.84; Outcome: inactive

How did the screen score Ift80 (intraflagellar transport 80)?
combined z-score class: no change with or without drug; viability z-score with doxorubicin: -0.79; viability z-score without drug: 1.52; Outcome: inactive

What did the screen give for Ccl6 (C-C motif chemokine ligand 6)?
combined z-score class: no change with or without drug; viability z-score with doxorubicin: -0.56; viability z-score without drug: -0.51; Outcome: inactive

For Plet1 (placenta expressed transcript 1), what was measured?
combined z-score class: no change with or without drug; viability z-score with doxorubicin: 1.46; viability z-score without drug: 0.84; Outcome: inactive

What is on record for Smarca5 (SNF2 related chromatin remodeling ATPase 5)?
combined z-score class: no change with or without drug; viability z-score with doxorubicin: -0.22; viability z-score without drug: -1.18; Outcome: inactive

With Sgk1 (serum/glucocorticoid regulated kinase 1), how do the results read?
combined z-score class: no change with or without drug; viability z-score with doxorubicin: 0.34; viability z-score without drug: 0; Outcome: inactive

Which result is listed for Rft1 (RFT1 homolog)?
combined z-score class: no change with or without drug; viability z-score with doxorubicin: 0.22; viability z-score without drug: 0.17; Outcome: inactive

What did the screen give for Cnn3 (calponin 3, acidic)?
combined z-score class: no change with or without drug; viability z-score with doxorubicin: -1.12; viability z-score without drug: -0.17; Outcome: inactive

For Or4c109 (olfactory receptor family 4 subfamily C member 109), how do the results read?
combined z-score class: no change with or without drug; viability z-score with doxorubicin: 0.34; viability z-score without drug: 1.18; Outcome: inactive

What did the screen give for Mocs2 (molybdenum cofactor synthesis 2)?
combined z-score class: no change with or without drug; viability z-score with doxorubicin: 0.9; viability z-score without drug: 1.35; Outcome: inactive

What did the screen give for H2-M10.5 (histocompatibility 2, M region locus 10.5)?
combined z-score class: no change with or without drug; viability z-score with doxorubicin: 0.45; viability z-score without drug: 0.51; Outcome: inactive

Which result is listed for Atp6v0a1 (ATPase, H+ transporting, lysosomal V0 subunit A1)?
combined z-score class: no change with or without drug; viability z-score with doxorubicin: 0.56; viability z-score without drug: -0.67; Outcome: inactive

For Notch2 (notch 2), what was measured?
combined z-score class: no change with or without drug; viability z-score with doxorubicin: 0.67; viability z-score without drug: -1.18; Outcome: inactive

With Or4g7 (olfactory receptor family 4 subfamily G member 7), what was measured?
combined z-score class: no change with or without drug; viability z-score with doxorubicin: 0.67; viability z-score without drug: -1.18; Outcome: inactive

For 1700020M10Rik (RIKEN cDNA 1700020M10 gene), what does the deposit list?
combined z-score class: no change with or without drug; viability z-score with doxorubicin: 0; viability z-score without drug: -0.17; Outcome: inactive

With Myo1b (myosin IB), what does the deposit list?
combined z-score class: no change with or without drug; viability z-score with doxorubicin: 0; viability z-score without drug: -0.84; Outcome: inactive

With Zfp759 (zinc finger protein 759), what does the deposit list?
combined z-score class: no change with or without drug; viability z-score with doxorubicin: -1.35; viability z-score without drug: -0.51; Outcome: inactive

Which result is listed for Mcm5 (minichromosome maintenance complex component 5)?
combined z-score class: no change with or without drug; viability z-score with doxorubicin: -0.34; viability z-score without drug: 0; Outcome: inactive

Which result is listed for Or7d9 (olfactory receptor family 7 subfamily D member 9)?
combined z-score class: no change with or without drug; viability z-score with doxorubicin: -1.57; viability z-score without drug: -1.35; Outcome: inactive

For Myo6 (myosin VI), how do the results read?
combined z-score class: no change with or without drug; viability z-score with doxorubicin: 1.46; viability z-score without drug: 1.18; Outcome: inactive

For Or5k14 (olfactory receptor family 5 subfamily K member 14) #1, what does the deposit list?
combined z-score class: no change with or without drug; viability z-score with doxorubicin: -0.67; viability z-score without drug: 1.35; Outcome: inactive

For Or5k14 (olfactory receptor family 5 subfamily K member 14) #2, what does the deposit list?
combined z-score class: no change with or without drug; viability z-score with doxorubicin: -1.35; viability z-score without drug: 1.52; Outcome: inactive

How did the screen score Vstm2a (V-set and transmembrane domain containing 2A)?
combined z-score class: no change with or without drug; viability z-score with doxorubicin: -0.9; viability z-score without drug: 0.34; Outcome: inactive

With Epb41l4b (erythrocyte membrane protein band 4.1 like 4b), what does the deposit list?
combined z-score class: no change with or without drug; viability z-score with doxorubicin: -0.9; viability z-score without drug: -1.01; Outcome: inactive

For Cacnb3 (calcium channel, voltage-dependent, beta 3 subunit), what was measured?
combined z-score class: no change with or without drug; viability z-score with doxorubicin: -0.22; viability z-score without drug: -0.51; Outcome: inactive

What is on record for B3gnt4?
combined z-score class: no change with or without drug; viability z-score with doxorubicin: 0.56; viability z-score without drug: 1.69; Outcome: inactive

With Igsf1 (immunoglobulin superfamily, member 1), what was measured?
combined z-score class: no change with or without drug; viability z-score with doxorubicin: -1.8; viability z-score without drug: 0; Outcome: inactive

What is on record for Ms4a6b (membrane-spanning 4-domains, subfamily A, member 6B)?
combined z-score class: no change with or without drug; viability z-score with doxorubicin: 0.9; viability z-score without drug: -0.84; Outcome: inactive

With D6ERTD245E, what does the deposit list?
combined z-score class: no change with or without drug; viability z-score with doxorubicin: -1.57; viability z-score without drug: 0.84; Outcome: inactive

How did the screen score Nudt6 (nudix hydrolase 6)?
combined z-score class: no change with or without drug; viability z-score with doxorubicin: -0.45; viability z-score without drug: -0.51; Outcome: inactive

For Plpbp (pyridoxal phosphate binding protein), what does the deposit list?
combined z-score class: no change with or without drug; viability z-score with doxorubicin: 0.56; viability z-score without drug: 0.84; Outcome: inactive

For Hoxd12 (homeobox D12), what does the deposit list?
combined z-score class: no change with or without drug; viability z-score with doxorubicin: -1.35; viability z-score without drug: -0.51; Outcome: inactive

With Rgs16 (regulator of G-protein signaling 16), how do the results read?
combined z-score class: no change with or without drug; viability z-score with doxorubicin: 0; viability z-score without drug: -1.18; Outcome: inactive

For Rusf1 (RUS family member 1), what was measured?
combined z-score class: no change with or without drug; viability z-score with doxorubicin: -0.22; viability z-score without drug: 0.17; Outcome: inactive

Reprinted from the entries so far for reference:
1700020M10Rik (RIKEN cDNA 1700020M10 gene) — combined z-score class: no change with or without drug; viability z-score with doxorubicin: 0; viability z-score without drug: -0.17; Outcome: inactive
Myo1b (myosin IB) — combined z-score class: no change with or without drug; viability z-score with doxorubicin: 0; viability z-score without drug: -0.84; Outcome: inactive
Zfp759 (zinc finger protein 759) — combined z-score class: no change with or without drug; viability z-score with doxorubicin: -1.35; viability z-score without drug: -0.51; Outcome: inactive
Mcm5 (minichromosome maintenance complex component 5) — combined z-score class: no change with or without drug; viability z-score with doxorubicin: -0.34; viability z-score without drug: 0; Outcome: inactive
Or7d9 (olfactory receptor family 7 subfamily D member 9) — combined z-score class: no change with or without drug; viability z-score with doxorubicin: -1.57; viability z-score without drug: -1.35; Outcome: inactive
